The values that follow are results of earlier work, collected in publication PMC9323911, “Comparative Metabolomics Study of the Impact of Articaine and Lidocaine on the Metabolism of SH-SY5Y Neuronal Cells” (Metabolites, 2022).

Molecules are shown by their SMILES. Structures can show the parent of a compound that is named as a salt.

One data set relates to SH-SY5Y cells. Conditions: 20 min incubation of SH-SY5Y cells; cited from earlier work.
In data set [1] the test system is neuronal cells of a different lineage (SHEP). As to conditions: 24 h; cited from earlier work.

For `CCN(CC)CC(=O)Nc1c(C)cccc1C` [LDC, lidocaine hydrochloride], the values for the LD50 (in the data set on SH-SY5Y cells; in data set [1]) were 3.3 mM and 9.2 mM, respectively.
